Experimental data as given in the supplement of paper PMC10849652.
Some of the results follow.

By UniProt entry, the sequences of proteins in these tests, tags left out. Where a name states a change or a piece, a line headed by the entry shows the natural chain unless it says otherwise.
UniProt P22307: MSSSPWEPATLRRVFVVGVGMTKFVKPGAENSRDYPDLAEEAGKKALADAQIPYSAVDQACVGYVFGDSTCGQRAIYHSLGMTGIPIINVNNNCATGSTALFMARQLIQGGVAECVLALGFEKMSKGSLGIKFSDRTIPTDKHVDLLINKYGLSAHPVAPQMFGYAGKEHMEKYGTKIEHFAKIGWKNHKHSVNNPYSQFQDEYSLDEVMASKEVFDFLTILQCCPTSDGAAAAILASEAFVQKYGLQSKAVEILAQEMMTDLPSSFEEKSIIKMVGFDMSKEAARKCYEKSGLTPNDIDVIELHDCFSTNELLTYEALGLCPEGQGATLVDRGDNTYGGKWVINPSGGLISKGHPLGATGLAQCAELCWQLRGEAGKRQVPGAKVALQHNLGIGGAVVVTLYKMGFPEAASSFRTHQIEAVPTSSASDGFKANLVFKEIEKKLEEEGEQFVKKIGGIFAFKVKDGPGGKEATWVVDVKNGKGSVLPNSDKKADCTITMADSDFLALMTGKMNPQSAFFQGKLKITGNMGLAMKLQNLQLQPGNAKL
UniProt O00767: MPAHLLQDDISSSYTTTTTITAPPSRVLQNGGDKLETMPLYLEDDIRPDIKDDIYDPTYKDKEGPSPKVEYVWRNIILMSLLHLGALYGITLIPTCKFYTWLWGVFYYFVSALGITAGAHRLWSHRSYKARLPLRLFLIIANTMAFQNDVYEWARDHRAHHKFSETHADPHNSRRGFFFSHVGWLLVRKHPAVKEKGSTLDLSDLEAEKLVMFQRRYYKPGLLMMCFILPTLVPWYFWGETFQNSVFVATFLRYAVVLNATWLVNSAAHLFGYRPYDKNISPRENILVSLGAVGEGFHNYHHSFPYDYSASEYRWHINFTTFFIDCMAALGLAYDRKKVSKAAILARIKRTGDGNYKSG
UniProt Q8WTV0: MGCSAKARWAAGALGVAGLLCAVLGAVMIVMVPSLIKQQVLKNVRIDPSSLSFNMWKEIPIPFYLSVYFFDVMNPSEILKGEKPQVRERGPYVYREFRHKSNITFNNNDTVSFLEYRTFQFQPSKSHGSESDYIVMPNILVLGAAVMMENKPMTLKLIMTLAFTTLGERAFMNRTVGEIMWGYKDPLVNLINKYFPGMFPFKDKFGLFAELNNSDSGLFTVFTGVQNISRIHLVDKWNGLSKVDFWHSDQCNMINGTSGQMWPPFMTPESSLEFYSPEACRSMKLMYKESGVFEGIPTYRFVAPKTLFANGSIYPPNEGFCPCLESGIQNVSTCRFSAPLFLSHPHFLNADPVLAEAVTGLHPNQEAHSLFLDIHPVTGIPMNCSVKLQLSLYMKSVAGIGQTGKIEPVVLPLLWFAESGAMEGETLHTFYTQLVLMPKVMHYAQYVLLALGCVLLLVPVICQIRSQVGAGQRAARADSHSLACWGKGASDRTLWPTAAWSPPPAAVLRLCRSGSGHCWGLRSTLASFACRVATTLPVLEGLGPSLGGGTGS
UniProt Q5PRF9: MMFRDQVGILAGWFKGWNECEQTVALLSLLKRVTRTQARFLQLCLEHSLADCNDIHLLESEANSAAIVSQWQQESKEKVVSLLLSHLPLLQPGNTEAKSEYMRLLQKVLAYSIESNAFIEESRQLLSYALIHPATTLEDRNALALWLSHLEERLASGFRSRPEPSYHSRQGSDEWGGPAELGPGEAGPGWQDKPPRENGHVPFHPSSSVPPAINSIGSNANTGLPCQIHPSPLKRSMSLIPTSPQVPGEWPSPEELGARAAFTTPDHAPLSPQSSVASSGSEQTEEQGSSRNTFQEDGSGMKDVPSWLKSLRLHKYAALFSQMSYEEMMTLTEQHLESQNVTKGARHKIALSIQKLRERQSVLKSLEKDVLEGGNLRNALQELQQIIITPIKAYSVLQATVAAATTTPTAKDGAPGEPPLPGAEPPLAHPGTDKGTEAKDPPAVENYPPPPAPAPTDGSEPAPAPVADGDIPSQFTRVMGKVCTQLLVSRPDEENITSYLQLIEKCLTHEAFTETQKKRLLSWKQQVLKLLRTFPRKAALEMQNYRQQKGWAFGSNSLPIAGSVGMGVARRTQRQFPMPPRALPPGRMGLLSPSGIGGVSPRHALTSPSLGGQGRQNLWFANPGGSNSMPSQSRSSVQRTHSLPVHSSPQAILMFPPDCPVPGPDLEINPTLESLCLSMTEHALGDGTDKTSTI
UniProt Q9UGP8: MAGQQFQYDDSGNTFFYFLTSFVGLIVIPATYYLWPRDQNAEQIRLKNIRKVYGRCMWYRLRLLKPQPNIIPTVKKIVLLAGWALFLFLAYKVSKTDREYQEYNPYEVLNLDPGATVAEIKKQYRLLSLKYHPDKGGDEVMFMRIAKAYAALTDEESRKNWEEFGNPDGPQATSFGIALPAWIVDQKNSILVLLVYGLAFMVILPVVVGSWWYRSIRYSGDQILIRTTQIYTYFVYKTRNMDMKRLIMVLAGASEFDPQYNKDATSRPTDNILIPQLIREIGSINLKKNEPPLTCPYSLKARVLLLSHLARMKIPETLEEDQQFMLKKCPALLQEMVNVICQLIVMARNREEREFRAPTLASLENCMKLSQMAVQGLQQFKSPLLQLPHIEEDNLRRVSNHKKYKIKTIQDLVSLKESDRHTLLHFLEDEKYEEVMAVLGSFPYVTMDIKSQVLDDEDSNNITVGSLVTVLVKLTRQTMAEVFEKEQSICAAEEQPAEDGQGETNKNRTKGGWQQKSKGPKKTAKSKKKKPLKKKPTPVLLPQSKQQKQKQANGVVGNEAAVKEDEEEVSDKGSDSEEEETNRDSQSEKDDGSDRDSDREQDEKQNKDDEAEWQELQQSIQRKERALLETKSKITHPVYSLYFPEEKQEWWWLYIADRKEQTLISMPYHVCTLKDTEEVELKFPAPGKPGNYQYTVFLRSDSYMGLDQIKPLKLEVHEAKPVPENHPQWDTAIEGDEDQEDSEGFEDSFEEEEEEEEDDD
UniProt Q9Y3Z3: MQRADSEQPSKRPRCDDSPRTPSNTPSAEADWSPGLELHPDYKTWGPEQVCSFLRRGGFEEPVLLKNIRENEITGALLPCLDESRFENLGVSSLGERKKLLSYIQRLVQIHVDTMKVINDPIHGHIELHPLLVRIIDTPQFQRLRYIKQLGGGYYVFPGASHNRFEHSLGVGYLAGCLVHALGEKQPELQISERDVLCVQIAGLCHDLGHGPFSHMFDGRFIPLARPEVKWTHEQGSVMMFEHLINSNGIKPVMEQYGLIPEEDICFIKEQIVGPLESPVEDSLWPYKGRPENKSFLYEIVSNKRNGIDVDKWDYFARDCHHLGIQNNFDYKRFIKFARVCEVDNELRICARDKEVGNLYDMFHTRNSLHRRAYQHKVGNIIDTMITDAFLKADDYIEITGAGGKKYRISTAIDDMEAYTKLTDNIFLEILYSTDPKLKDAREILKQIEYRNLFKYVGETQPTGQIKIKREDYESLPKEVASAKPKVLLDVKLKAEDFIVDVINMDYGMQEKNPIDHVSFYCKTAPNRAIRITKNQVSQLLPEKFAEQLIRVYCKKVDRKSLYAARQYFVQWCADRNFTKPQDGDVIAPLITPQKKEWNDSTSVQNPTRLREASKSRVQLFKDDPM
UniProt A3KN83: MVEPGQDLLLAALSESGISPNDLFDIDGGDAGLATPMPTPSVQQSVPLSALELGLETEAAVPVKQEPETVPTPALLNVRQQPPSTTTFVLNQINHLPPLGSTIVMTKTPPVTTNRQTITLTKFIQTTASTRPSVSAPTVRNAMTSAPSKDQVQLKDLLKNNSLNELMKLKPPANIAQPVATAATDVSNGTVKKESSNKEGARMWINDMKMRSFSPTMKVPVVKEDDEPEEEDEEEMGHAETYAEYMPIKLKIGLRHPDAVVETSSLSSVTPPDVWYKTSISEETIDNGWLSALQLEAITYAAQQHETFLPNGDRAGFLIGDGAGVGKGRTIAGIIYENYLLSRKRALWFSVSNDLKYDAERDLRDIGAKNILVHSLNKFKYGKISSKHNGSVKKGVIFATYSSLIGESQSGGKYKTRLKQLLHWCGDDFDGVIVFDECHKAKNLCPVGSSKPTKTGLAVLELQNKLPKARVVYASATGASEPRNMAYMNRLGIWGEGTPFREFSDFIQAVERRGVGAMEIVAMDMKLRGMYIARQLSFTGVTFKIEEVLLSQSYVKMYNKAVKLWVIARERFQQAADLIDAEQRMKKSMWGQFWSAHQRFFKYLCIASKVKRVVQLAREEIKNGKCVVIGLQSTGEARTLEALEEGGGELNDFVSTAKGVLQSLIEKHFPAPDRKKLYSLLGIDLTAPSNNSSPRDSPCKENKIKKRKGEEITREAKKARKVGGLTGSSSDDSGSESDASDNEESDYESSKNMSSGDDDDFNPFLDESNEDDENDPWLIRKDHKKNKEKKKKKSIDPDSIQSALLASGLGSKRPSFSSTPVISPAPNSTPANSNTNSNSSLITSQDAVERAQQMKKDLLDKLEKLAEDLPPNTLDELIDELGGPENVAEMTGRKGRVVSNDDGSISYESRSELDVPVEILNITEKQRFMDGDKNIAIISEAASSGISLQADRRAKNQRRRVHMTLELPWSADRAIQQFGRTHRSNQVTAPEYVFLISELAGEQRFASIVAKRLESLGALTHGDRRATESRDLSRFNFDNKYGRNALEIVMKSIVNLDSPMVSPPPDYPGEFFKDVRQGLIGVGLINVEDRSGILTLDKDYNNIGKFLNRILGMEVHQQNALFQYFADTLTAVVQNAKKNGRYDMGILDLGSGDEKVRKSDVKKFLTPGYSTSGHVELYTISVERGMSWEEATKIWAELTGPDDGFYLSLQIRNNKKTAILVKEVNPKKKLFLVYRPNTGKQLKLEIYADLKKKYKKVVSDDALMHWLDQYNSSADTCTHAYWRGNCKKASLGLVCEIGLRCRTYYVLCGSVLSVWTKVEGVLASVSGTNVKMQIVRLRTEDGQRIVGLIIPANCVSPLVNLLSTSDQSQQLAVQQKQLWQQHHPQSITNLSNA
UniProt Q6UVJ0: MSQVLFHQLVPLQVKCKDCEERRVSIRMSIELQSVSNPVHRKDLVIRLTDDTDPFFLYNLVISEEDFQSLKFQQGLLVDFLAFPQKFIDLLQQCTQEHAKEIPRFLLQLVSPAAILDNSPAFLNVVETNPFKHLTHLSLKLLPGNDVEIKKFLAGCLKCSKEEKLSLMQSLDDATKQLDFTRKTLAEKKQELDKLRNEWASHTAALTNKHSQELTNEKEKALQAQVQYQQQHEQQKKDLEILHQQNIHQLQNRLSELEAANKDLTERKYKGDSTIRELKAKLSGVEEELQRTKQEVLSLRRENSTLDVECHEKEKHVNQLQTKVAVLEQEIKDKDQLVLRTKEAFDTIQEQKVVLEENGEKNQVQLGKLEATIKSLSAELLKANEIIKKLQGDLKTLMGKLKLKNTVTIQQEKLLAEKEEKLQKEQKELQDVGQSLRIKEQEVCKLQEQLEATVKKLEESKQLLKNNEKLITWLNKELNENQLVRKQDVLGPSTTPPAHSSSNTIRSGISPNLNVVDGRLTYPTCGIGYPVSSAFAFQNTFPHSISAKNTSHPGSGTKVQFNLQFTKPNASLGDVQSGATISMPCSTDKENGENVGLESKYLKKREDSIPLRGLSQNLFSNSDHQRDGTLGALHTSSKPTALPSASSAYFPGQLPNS
UniProt Q9H9S3, whole entry, looked up: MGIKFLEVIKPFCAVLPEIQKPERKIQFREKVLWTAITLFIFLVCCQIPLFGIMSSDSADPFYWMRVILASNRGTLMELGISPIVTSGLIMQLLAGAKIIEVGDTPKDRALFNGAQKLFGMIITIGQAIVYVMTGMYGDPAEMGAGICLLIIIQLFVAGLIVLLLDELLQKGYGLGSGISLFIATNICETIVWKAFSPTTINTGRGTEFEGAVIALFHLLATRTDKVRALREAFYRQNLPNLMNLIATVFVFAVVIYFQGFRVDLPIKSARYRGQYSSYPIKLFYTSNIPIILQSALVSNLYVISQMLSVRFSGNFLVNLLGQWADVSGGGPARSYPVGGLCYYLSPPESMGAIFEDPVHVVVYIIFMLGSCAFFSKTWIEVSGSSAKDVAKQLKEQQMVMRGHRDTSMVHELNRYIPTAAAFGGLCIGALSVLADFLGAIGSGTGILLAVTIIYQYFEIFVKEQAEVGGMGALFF
UniProt Q9BRK5: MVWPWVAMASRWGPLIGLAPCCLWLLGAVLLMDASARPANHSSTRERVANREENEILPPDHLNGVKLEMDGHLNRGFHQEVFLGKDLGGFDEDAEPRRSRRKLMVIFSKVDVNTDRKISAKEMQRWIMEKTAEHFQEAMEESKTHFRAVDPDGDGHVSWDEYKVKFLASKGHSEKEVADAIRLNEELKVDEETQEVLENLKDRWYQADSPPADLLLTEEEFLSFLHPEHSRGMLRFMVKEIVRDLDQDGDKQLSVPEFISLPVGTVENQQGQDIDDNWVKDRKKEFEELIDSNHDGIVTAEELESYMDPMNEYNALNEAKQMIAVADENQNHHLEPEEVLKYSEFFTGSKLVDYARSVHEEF
UniProt P60468, whole entry, looked up: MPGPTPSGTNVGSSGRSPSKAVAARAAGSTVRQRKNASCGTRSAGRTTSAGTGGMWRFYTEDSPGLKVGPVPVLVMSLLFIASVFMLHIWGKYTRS

Experiments:
Assay in all cases: log2 fold change, soluble protein after heating vs DMSO (PISA); higher = thermal stabilisation; K562 lysate, 10 uM; active = over 0.2 and 3.5 SD of the protein, either way, in both replicates (recomputed)
vemurafenib = compound: CCCS(=O)(=O)Nc1ccc(F)c(C(=O)c2c[nH]c3ncc(-c4ccc(Cl)cc4)cc23)c1F [vemurafenib]
Procedure, shortened: (§1)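 To prepare the extract, K562 pellets were dounce-homogenised in PBS pH 7.4 with 1 mM MgCl2, giving crude material at 1 mg/mL protein. This was treated with 10 μM compound for 30 min, then heated in aliquots for 3 min over 48°C-58°C before pooling and addition of NP-40 to 0.5% at 4°C. Centrifugation at 21,000xg for 90 min left soluble protein in the supernatant, which TMTpro 16plex LC-MS/MS quantified with equalised channel sums. Results are log-two fold changes in thermal stability compared with solvent controls, from duplicates.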

[1] = compound: CCCS(=O)(=O)Nc1ccc(F)c(C(=O)c2c[nH]c3ncc(Cl)cc23)c1F
Procedure, shortened: as §1

barasertib = compound: CCN(CCCOc1ccc2c(Nc3cc(CC(=O)Nc4cccc(F)c4)[nH]n3)ncnc2c1)CCOP(=O)(O)O [barasertib]
Procedure, shortened: as §1

[2] = compound: CC[C@@H]1C(=O)N(C)c2cnc(Nc3ccc(C(=O)NC4CCN(C)CC4)cc3OC)nc2N1C1CCCC1
Procedure, shortened: as §1

volasertib = compound: CC[C@@H]1C(=O)N(C)c2cnc(Nc3ccc(C(=O)N[C@H]4CC[C@H](N5CCN(CC6CC6)CC5)CC4)cc3OC)nc2N1C(C)C [volasertib]
Procedure, shortened: as §1

[3] = compound: CCn1c(C(=O)N(C2CC2)C2CC2)cc2c3c(ncn3C)c(Nc3cc(C)n(C)n3)nc21
Procedure, shortened: as §1

[4] = compound: CCn1cc(-c2ccnc3[nH]c(-c4cccc(CN(C)C)c4)cc23)c(-c2ccc(NC(=O)N(C)C)cc2)n1
Procedure, shortened: as §1

[5] = compound: CN1CCC(CNc2ccc3ncc(-c4cccc(OC(F)(F)F)c4)n3n2)CC1
Procedure, shortened: as §1

saracatinib = compound: CN1CCN(CCOc2cc(OC3CCOCC3)c3c(Nc4c(Cl)ccc5c4OCO5)ncnc3c2)CC1 [saracatinib]
Procedure, shortened: as §1

sotrastaurin = compound: CN1CCN(c2nc(C3=C(c4c[nH]c5ccccc45)C(=O)NC3=O)c3ccccc3n2)CC1 [sotrastaurin]
Procedure, shortened: as §1

Target | log2 fold change (vemurafenib) | log2 fold change [1] | log2 fold change (barasertib) | log2 fold change [2] | log2 fold change (volasertib) | log2 fold change [3] | log2 fold change [4] | log2 fold change [5] | log2 fold change (saracatinib) | log2 fold change (sotrastaurin)
SEC22B (UniProt O75396) | inactive: 0.04 | inactive: 0.008 | inactive: 0.049 | inactive: 0.028 | inactive: 0.02 | inactive: -0.041 | inactive: -0.03 | inactive: 0.038 | inactive: -0.024 | inactive: -0.05
SCP2 (UniProt P22307) | inactive: -0.01 | inactive: -0.002 | inactive: 0.012 | inactive: 0.047 | inactive: 0.033 | inactive: -0.015 | inactive: 0.136 | inactive: -0.034 | inactive: -0.01 | inactive: -0.018
SEMA4C (UniProt Q9C0C4) | inactive: -0.036 | inactive: -0.005 | inactive: 0.004 | inactive: 0.01 | inactive: 0 | inactive: 0.045 | inactive: -0.005 | inactive: 0.011 | inactive: 0.03 | inactive: -0.004
SCAP (UniProt Q12770) | inactive: -0.012 | inactive: -0.072 | inactive: 0.045 | inactive: 0.13 | inactive: -0.064 | inactive: 0.039 | inactive: -0.062 | inactive: 0.074 | inactive: 0.133 | inactive: 0.006
SCPEP1 (UniProt Q9HB40) | inactive: 0.009 | inactive: 0.016 | inactive: 0.073 | inactive: -0.148 | inactive: -0.076 | inactive: -0.015 | inactive: 0.01 | inactive: -0.005 | inactive: 0.022 | inactive: 0.017
SDE2 (UniProt Q6IQ49) | inactive: -0.038 | inactive: 0.028 | inactive: 0.015 | inactive: 0.011 | inactive: 0.023 | inactive: 0.035 | inactive: -0.014 | inactive: -0.001 | inactive: 0.016 | inactive: -0.022
SCD (UniProt O00767) | inactive: -0.03 | inactive: 0.111 | inactive: 0.042 | inactive: 0.006 | inactive: 0.098 | inactive: -0.082 | active: -0.504 | inactive: 0.212 | inactive: 0.071 | inactive: 0.084
SECISBP2 (UniProt Q96T21) | inactive: 0.13 | inactive: -0.019 | inactive: 0.03 | inactive: 0.048 | inactive: 0.148 | inactive: 0.16 | inactive: -0.039 | inactive: 0.062 | inactive: -0.009 | inactive: 0.354
SCARB1 isoform 2 (UniProt Q8WTV0) | inactive: -0.001 | inactive: 0.004 | inactive: -0.035 | inactive: -0.014 | inactive: 0.01 | inactive: -0.002 | inactive: -0.077 | inactive: 0.042 | inactive: 0 | inactive: 0.015
SAMD4B (UniProt Q5PRF9) | inactive: -0.025 | inactive: 0.017 | inactive: 0.011 | inactive: 0.017 | inactive: -0.007 | inactive: 0.024 | inactive: -0.09 | inactive: 0.069 | inactive: -0.023 | inactive: -0.027
SEC63 (UniProt Q9UGP8) | inactive: 0.025 | inactive: -0.001 | inactive: -0.041 | inactive: 0.063 | inactive: 0.019 | inactive: -0.005 | inactive: -0.119 | inactive: 0.018 | inactive: -0.006 | inactive: -0.014
SAAL1 (UniProt Q96ER3) | inactive: -0.018 | inactive: 0.028 | inactive: -0.037 | inactive: -0.037 | inactive: -0.032 | inactive: 0.079 | inactive: 0.061 | inactive: -0.143 | inactive: -0.042 | inactive: 0.001
SEC23A (UniProt Q15436) | inactive: -0.048 | inactive: 0.023 | inactive: 0.025 | inactive: -0.014 | inactive: -0.047 | inactive: 0.037 | inactive: -0.049 | inactive: 0.031 | inactive: 0 | inactive: 0.023
SDCBP (UniProt O00560) | inactive: 0.017 | inactive: 0.01 | inactive: 0.061 | inactive: -0.041 | inactive: 0.007 | inactive: -0.027 | inactive: -0.023 | inactive: 0.016 | inactive: -0.011 | inactive: -0.027
SEPTIN9 (UniProt Q9UHD8) | inactive: -0.012 | inactive: -0.009 | inactive: -0.003 | inactive: 0.019 | inactive: 0.021 | inactive: -0.021 | inactive: -0.232 | inactive: 0.08 | inactive: 0.011 | inactive: 0.024
SAMHD1 (UniProt Q9Y3Z3) | inactive: 0.034 | inactive: 0.045 | inactive: 0.007 | inactive: -0.032 | inactive: -0.037 | inactive: 0.068 | inactive: -0.096 | inactive: 0.079 | inactive: -0.052 | inactive: 0.032
SCAF11 (UniProt Q99590) | inactive: 0.066 | inactive: 0.022 | inactive: -0.03 | inactive: 0.073 | inactive: 0 | inactive: 0.003 | inactive: -0.009 | inactive: 0.007 | inactive: 0.018 | inactive: -0.006
SBNO1 (UniProt A3KN83) | inactive: -0.039 | inactive: 0.006 | inactive: 0.016 | inactive: 0.031 | inactive: -0.011 | inactive: 0.008 | inactive: -0.026 | inactive: 0.025 | inactive: -0.013 | inactive: 0.019
SASS6 (UniProt Q6UVJ0) | inactive: 0.042 | inactive: -0.024 | inactive: -0.016 | inactive: 0.039 | inactive: -0.024 | inactive: 0.024 | inactive: 0.154 | inactive: -0.047 | inactive: 0.059 | inactive: -0.02
SDF2L1 (UniProt Q9HCN8) | inactive: 0.018 | inactive: 0.011 | inactive: -0.021 | inactive: 0.001 | inactive: 0.019 | inactive: 0.014 | inactive: -0.166 | inactive: 0.089 | inactive: -0.001 | inactive: -0.009
SEC61A2 (UniProt Q9H9S3) | inactive: -0.004 | inactive: -0.028 | inactive: 0.008 | inactive: 0.023 | inactive: 0.028 | inactive: 0.018 | inactive: -0.182 | inactive: 0.047 | inactive: -0.01 | inactive: 0.049
SAMD4A (UniProt Q9UPU9) | inactive: -0.032 | inactive: -0.376 | inactive: 0.005 | inactive: 0.05 | inactive: 0.014 | inactive: -0.292 | inactive: 1.12 | inactive: 0.115 | inactive: 0.07 | inactive: 0.01
SAMM50 (UniProt Q9Y512) | inactive: 0.024 | inactive: 0.003 | inactive: 0.012 | inactive: 0.025 | inactive: 0.031 | inactive: -0.002 | inactive: 0.076 | inactive: -0.041 | inactive: -0.007 | inactive: -0.008
SEC16A isoform 5 (UniProt O15027) | inactive: 0.03 | inactive: 0.019 | inactive: 0.021 | inactive: 0.038 | inactive: -0.028 | inactive: 0.006 | inactive: 0.008 | inactive: -0.037 | inactive: 0.013 | inactive: -0.01
SEPTIN7 (UniProt Q16181) | inactive: -0.021 | inactive: -0.022 | inactive: -0.014 | inactive: 0 | inactive: 0.01 | inactive: -0.004 | inactive: 0.126 | inactive: -0.063 | inactive: -0.015 | inactive: 0.025
SART3, A0A499FI31 | inactive: 0.005 | inactive: 0.007 | inactive: -0.03 | inactive: -0.013 | inactive: 0.001 | inactive: -0.012 | inactive: 0.065 | inactive: -0.067 | inactive: 0 | inactive: -0.014
SDF4 (UniProt Q9BRK5) | inactive: -0.013 | inactive: -0.009 | inactive: -0.018 | inactive: 0.03 | inactive: 0.012 | inactive: 0.036 | inactive: 0.099 | inactive: -0.059 | inactive: -0.017 | inactive: 0.008
SDAD1 (UniProt Q9NVU7) | inactive: -0.011 | inactive: 0.026 | inactive: -0.002 | inactive: 0.036 | inactive: -0.018 | inactive: 0.012 | inactive: -0.018 | inactive: -0.002 | inactive: -0.014 | inactive: 0.016
SEC61B (UniProt P60468) | inactive: -0.015 | inactive: -0.029 | inactive: -0.022 | inactive: -0.045 | inactive: 0.03 | inactive: 0.025 | inactive: -0.038 | inactive: 0.027 | inactive: 0.027 | inactive: 0.043
SCAF8 (UniProt Q9UPN6) | inactive: 0.002 | inactive: 0.01 | inactive: 0.039 | inactive: 0.035 | inactive: -0.008 | inactive: 0.043 | inactive: 0.002 | inactive: 0 | inactive: 0.009 | inactive: -0.038

2 records picked at random from the list so far:
Target | log2 fold change (vemurafenib) | log2 fold change [1] | log2 fold change (barasertib) | log2 fold change [2] | log2 fold change (volasertib) | log2 fold change [3] | log2 fold change [4] | log2 fold change [5] | log2 fold change (saracatinib) | log2 fold change (sotrastaurin)
SCAF11 (UniProt Q99590) | inactive: 0.066 | inactive: 0.022 | inactive: -0.03 | inactive: 0.073 | inactive: 0 | inactive: 0.003 | inactive: -0.009 | inactive: 0.007 | inactive: 0.018 | inactive: -0.006
SCD (UniProt O00767) | inactive: -0.03 | inactive: 0.111 | inactive: 0.042 | inactive: 0.006 | inactive: 0.098 | inactive: -0.082 | active: -0.504 | inactive: 0.212 | inactive: 0.071 | inactive: 0.084
